Experimental data: PMC7817835

T1: outer dynein arm intermediate chain IC1 (Chlamydomonas reinhardtii (endogenous in flagella, strain CC-1690)) (UniProt Q39578)
T1 sequence: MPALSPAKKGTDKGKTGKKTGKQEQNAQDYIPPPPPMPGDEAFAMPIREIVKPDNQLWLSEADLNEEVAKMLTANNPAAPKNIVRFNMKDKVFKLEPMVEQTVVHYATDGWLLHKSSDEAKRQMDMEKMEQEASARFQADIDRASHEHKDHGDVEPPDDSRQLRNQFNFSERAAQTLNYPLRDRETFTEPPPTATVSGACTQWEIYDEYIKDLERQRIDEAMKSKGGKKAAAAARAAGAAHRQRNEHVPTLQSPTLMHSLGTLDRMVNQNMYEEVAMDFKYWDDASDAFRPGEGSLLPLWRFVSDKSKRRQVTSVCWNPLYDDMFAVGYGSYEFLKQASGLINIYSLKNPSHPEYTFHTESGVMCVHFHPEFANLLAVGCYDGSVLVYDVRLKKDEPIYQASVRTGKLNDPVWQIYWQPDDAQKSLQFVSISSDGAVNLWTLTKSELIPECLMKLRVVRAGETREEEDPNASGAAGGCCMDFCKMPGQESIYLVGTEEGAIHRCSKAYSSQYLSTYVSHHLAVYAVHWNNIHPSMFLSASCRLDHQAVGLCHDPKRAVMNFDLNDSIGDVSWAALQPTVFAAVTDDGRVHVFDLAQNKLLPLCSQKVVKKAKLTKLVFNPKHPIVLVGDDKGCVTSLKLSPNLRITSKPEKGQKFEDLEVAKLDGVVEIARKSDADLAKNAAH


Legend:
[1] = molecular target: T1, outer dynein arm intermediate chain IC1 (Chlamydomonas reinhardtii (endogenous in flagella, strain CC-1690)); assay: cryo-EM structure; single-particle cryo-EM of the native ODA on doublet microtubules of splayed C. reinhardtii axonemes (splayed with 10 mM Mg-ATP and 750 μM CaCl2 in HMDEKP; 250 μM free Ca2+); apo, post-powerstroke state
[2] = molecular target: ODA docking complex subunit DC2 (Chlamydomonas reinhardtii (endogenous in flagella, strain CC-1690)); assay: as above

Row | binding [1] | binding [2] | Molecule
1 | binds | – | outer dynein arm light chain LC7b (Roadblock homolog)
2 | binds | – | outer dynein arm light chain LC7a (Roadblock homolog)
3 | binds | – | outer dynein arm light chain LC8
4 | – | binds | ODA docking complex subunit DC3 (calcium-binding) (protein, UniProt Q7Y0H2 1-184) MASAAARERYARKNEQNELERAFNTIDSKGDKKIDAEELTELFLRLGHKPKRGEVEDMIWEVDEDCDGCISLLEFQTLYTRCRDDKTGYEPRGLFNVVEFVMNDKNNQGFITLEEAMQIMYLRYGRAELDMQLEQVFGTADLNSGKILTLTEFLHCLHTNQVKQLLNRVTAKTYKAPPPPQKRK

No constants are given. Whether binding was seen depends on the method and setting. Binding calls can cover weak binding; strength is not graded here. For some of these results: Tags and fused reporters may be left off the sequences shown.
